Data: the supplement of paper PMC4604168 (melanoma cell lines)
Some of the results follow. Many values rest on one well or one pass, so single values are uncertain.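 The apoptosis fraction was the count of cleaved-PARP antibody-stained nuclei relative to all DNA-stained nuclei, imaged in 1,536-well plates. Screening doses were set so most cells survived, and baseline and induced cleaved-PARP levels vary greatly across cell lines.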

Assays:
Experiment in all cases: cleaved PARP positive nuclei fraction relative to DMSO control; melanoma cells; higher = more apoptosis
Conditions in all cases: library dose: low library concentration; 72 h
[1] = test system: MZ2-MEL
[2] = test system: MeWo
[3] = test system: RPMI7951
[4] = test system: RVH-421
[5] = test system: SkMel28
[6] = test system: SkMel2
[7] = test system: SkMel30
[8] = test system: UACC62
[9] = test system: WM115
[10] = test system: WM1716
[11] = test system: WM1745
[12] = test system: WM3526
[13] = test system: WM3619
[14] = test system: WM451Lu

SMILES | cleaved PARP positive nuclei fraction [1] [%] | cleaved PARP positive nuclei fraction [2] [%] | cleaved PARP positive nuclei fraction [3] [%] | cleaved PARP positive nuclei fraction [4] [%] | cleaved PARP positive nuclei fraction [5] [%] | cleaved PARP positive nuclei fraction [6] [%] | cleaved PARP positive nuclei fraction [7] [%] | cleaved PARP positive nuclei fraction [8] [%] | cleaved PARP positive nuclei fraction [9] [%] | cleaved PARP positive nuclei fraction [10] [%] | cleaved PARP positive nuclei fraction [11] [%] | cleaved PARP positive nuclei fraction [12] [%] | cleaved PARP positive nuclei fraction [13] [%] | cleaved PARP positive nuclei fraction [14] [%]
CNC(=O)c1cc(Oc2ccc(NC(=O)Nc3ccc(Cl)c(C(F)(F)F)c3)cc2)ccn1 [sorafenib] + C=C(c1ccc(C(=O)O)cc1)c1cc2c(cc1C)C(C)(C)CCC2(C)C [Bexarotene] (first compound 0.4 µM, partner dose 2 µM) | 107 | 72.2 | 145 | 105 | 57.9 | 103 | 75.2 | 31.4 | 32.8 | 114 | 110 | 62.2 | 85.3 | 117
C=C(c1ccc(C(=O)O)cc1)c1cc2c(cc1C)C(C)(C)CCC2(C)C [Bexarotene] + COc1ccc(Cl)c(Nc2nc3ccccc3nc2NS(=O)(=O)c2cccc(NC(=O)C(C)(C)N)c2)c1 [XL147] (first compound 2 µM, partner dose 0.8 µM) | 73.5 | 132 | 55.8 | 81.1 | 116 | 139 | 199 | 58.1 | 102 | 218 | 1780 | 59.7 | 106 | 121
O=C(O)c1ccc2c(c1)nc(Nc1cccc(Cl)c1)c1ccncc12 + C=C(c1ccc(C(=O)O)cc1)c1cc2c(cc1C)C(C)(C)CCC2(C)C [Bexarotene] (first compound 0.4 µM, partner dose 2 µM) | 130 | 39.5 | 77 | 72.3 | 76.7 | 127 | 84.4 | 71.4 | 79.5 | 104 | 99.8 | 54.2 | 96.4 | 62.9
Nc1ccn([C@@H]2O[C@H](CO)[C@@H](O)C2(F)F)c(=O)n1 [gemcitabine] + Cn1nnc2c(C(N)=O)ncn2c1=O [temozolomide] (first compound 0.0004 µM, partner dose 2 µM) | 122 | 123 | 86.4 | 204 | 101 | 58.5 | 202 | 51 | 101 | 181 | 111 | 114 | 111 | 45.4
C[C@@H](Oc1cc(-c2cnn(C3CCNCC3)c2)cnc1N)c1c(Cl)ccc(F)c1Cl [Crizotinib] + OCc1c[nH]c2ccccc12 [Indole-3-carbinol] (first compound 0.2 µM, partner dose 0.8 µM) | 182 | 91.4 | 94.6 | 79.6 | 178 | 39.5 | 64.6 | 82.7 | 49.2 | 121 | 98.2 | 71.3 | 78.7 | 158
CS(=O)(=O)CCNCc1ccc(-c2ccc3ncnc(Nc4ccc(OCc5cccc(F)c5)c(Cl)c4)c3c2)o1 [lapatinib] + Cn1c(Nc2ccc(C(F)(F)F)cc2)nc2cc(Oc3ccnc(-c4ncc(C(F)(F)F)[nH]4)c3)ccc21 [CHIR265] (first compound 0.8 µM, partner dose 0.08 µM) | 101 | 140 | 98.5 | 135 | 61.8 | 185 | 251 | 216 | 420 | 168 | 167 | 428 | 126 | 280
C[C@@H](Oc1cc(-c2cnn(C3CCNCC3)c2)cnc1N)c1c(Cl)ccc(F)c1Cl [Crizotinib] + Clc1ccc(Nc2nnc(Cc3ccncc3)c3ccccc23)cc1 [vatalanib] (first compound 0.2 µM, partner dose 2 µM) | 123 | 119 | 93.4 | 56.6 | 212 | 147 | 113 | 61.2 | 86.9 | 90.3 | 106 | 145 | 107 | 143
CN1CCN(c2ccc3nc(-c4c(N)c5c(F)cccc5[nH]c4=O)[nH]c3c2)CC1 [Dovitinib] + COc1ccc(Cl)c(Nc2nc3ccccc3nc2NS(=O)(=O)c2cccc(NC(=O)C(C)(C)N)c2)c1 [XL147] (first compound 0.1 µM, partner dose 0.8 µM) | 118 | 82.8 | 60.7 | 44.1 | 75.3 | 161 | 425 | 121 | 34.9 | 135 | 243 | 27 | 115 | 77.3
Cc1cc(Nc2cc(N3CCN(C)CC3)nc(/C=C/c3ccccc3)n2)n[nH]1 + Cn1nnc2c(C(N)=O)ncn2c1=O [temozolomide] (first compound 0.04 µM, partner dose 2 µM) | 73.1 | 183 | 193 | 169 | 105 | 78.4 | 397 | 75.5 | 145 | 264 | 96.6 | 71.8 | 240 | 132
O=C(O)c1ccc2c(c1)nc(Nc1cccc(Cl)c1)c1ccncc12 + Cn1nnc2c(C(N)=O)ncn2c1=O [temozolomide] (first compound 0.4 µM, partner dose 2 µM) | 155 | 110 | 282 | 78 | 83.6 | 52.9 | 25 | 132 | 115 | 161 | 95.8 | 50.7 | 95.1 | 480
CCCS(=O)(=O)Nc1ccc(F)c(C(=O)c2c[nH]c3ncc(Cl)cc23)c1F + COCC[n+]1c2c(n(Cc3cnccn3)c1C)C(=O)c1ccccc1C2=O [YM155] (first compound 0.08 µM, partner dose 0.0004 µM) | 57.5 | 101 | 136 | 112 | 156 | 92.4 | 81.1 | 556 | 101 | 28.7 | 119 | 186 | 118 | 120
Nc1ccn([C@@H]2O[C@H](CO)[C@@H](O)C2(F)F)c(=O)n1 [gemcitabine] + Cn1c(Nc2ccc(C(F)(F)F)cc2)nc2cc(Oc3ccnc(-c4ncc(C(F)(F)F)[nH]4)c3)ccc21 [CHIR265] (first compound 0.0004 µM, partner dose 0.08 µM) | 104 | 169 | 313 | 118 | 184 | 124 | 215 | 288 | 299 | 194 | 133 | 57.8 | 296 | 151
CN1CCN(c2ccc3nc(-c4c(N)c5c(F)cccc5[nH]c4=O)[nH]c3c2)CC1 [Dovitinib] + C[C@]1(c2nc3c(C(N)=O)cccc3[nH]2)CCCN1 [Veliparib] (first compound 0.1 µM, partner dose 1.4 µM) | 38.1 | 76 | 43.3 | 222 | 72.8 | 79.2 | 84.1 | 18.8 | 158 | 20 | 25.7 | 49.2 | 83.4 | 208
CS(=O)(=O)CCNCc1ccc(-c2ccc3ncnc(Nc4ccc(OCc5cccc(F)c5)c(Cl)c4)c3c2)o1 [lapatinib] + C=C(c1ccc(C(=O)O)cc1)c1cc2c(cc1C)C(C)(C)CCC2(C)C [Bexarotene] (first compound 0.8 µM, partner dose 2 µM) | 114 | 217 | 73.2 | 34.4 | 101 | 70 | 76.6 | 37.4 | 53.5 | 298 | 89.3 | 85 | 89.8 | 94.8
CC(C)C[C@H](NC(=O)[C@H](Cc1ccccc1)NC(=O)c1cnccn1)B(O)O [Bortezomib] + CC(=O)c1c(C)c2cnc(Nc3ccc(N4CCNCC4)cn3)nc2n(C2CCCC2)c1=O [palbociclib] (first compound 0.001 µM, partner dose 0.04 µM) | 291 | 71.8 | 195 | 512 | 95 | 16.9 | 996 | 270 | 121 | 476 | 158 | 84.4 | 534 | 125
CN1CCN(c2ccc3nc(-c4c(N)c5c(F)cccc5[nH]c4=O)[nH]c3c2)CC1 [Dovitinib] + CC(=O)c1c(C)c2cnc(Nc3ccc(N4CCNCC4)cn3)nc2n(C2CCCC2)c1=O [palbociclib] (first compound 0.1 µM, partner dose 0.04 µM) | 88.6 | 183 | 127 | 81.2 | 116 | 136 | 165 | 96.1 | 60 | 43 | 137 | 86.8 | 128 | 68.4
Nc1nc(F)nc2c1ncn2[C@@H]1O[C@H](CO)[C@@H](O)[C@@H]1O [fludarabine] + OCc1c[nH]c2ccccc12 [Indole-3-carbinol] (first compound 0.2 µM, partner dose 0.8 µM) | 93.5 | 590 | 85.3 | 138 | 51.9 | 1550 | 1870 | 77.7 | 121 | 77.2 | 94.2 | 486 | 119 | 122
C=C(c1ccc(C(=O)O)cc1)c1cc2c(cc1C)C(C)(C)CCC2(C)C [Bexarotene] + Cn1c(Nc2ccc(C(F)(F)F)cc2)nc2cc(Oc3ccnc(-c4ncc(C(F)(F)F)[nH]4)c3)ccc21 [CHIR265] (first compound 2 µM, partner dose 0.08 µM) | 99.4 | 68.5 | 75.8 | 170 | 125 | 186 | 112 | 77.8 | 86.8 | 88.5 | 117 | 49.1 | 107 | 43.1
CNC(=O)c1cc(Oc2ccc(NC(=O)Nc3ccc(Cl)c(C(F)(F)F)c3)cc2)ccn1 [sorafenib] + Nc1ncn([C@H]2C[C@H](O)[C@@H](CO)O2)c(=O)n1 [decitabine] (first compound 0.4 µM, partner dose 0.1 µM) | 166 | 113 | 184 | 37.9 | 198 | 216 | 123 | 233 | 114 | 60.3 | 106 | 114 | 109 | 56

Some values from the list:
Entry of C=C(c1ccc(C(=O)O)cc1)c1cc2c(cc1C)C(C)(C)CCC2(C)C [Bexarotene] + COc1ccc(Cl)c(Nc2nc3ccccc3nc2NS(=O)(=O)c2cccc(NC(=O)C(C)(C)N)c2)c1 [XL147] (first compound 2 µM, partner dose 0.8 µM) under cleaved PARP positive nuclei fraction [14] [%]: 121
Entry of CC(C)C[C@H](NC(=O)[C@H](Cc1ccccc1)NC(=O)c1cnccn1)B(O)O [Bortezomib] + CC(=O)c1c(C)c2cnc(Nc3ccc(N4CCNCC4)cn3)nc2n(C2CCCC2)c1=O [palbociclib] (first compound 0.001 µM, partner dose 0.04 µM) under cleaved PARP positive nuclei fraction [13] [%]: 534
